From article PMC5441903, “The E3 ligase ABI3-INTERACTING PROTEIN2 negatively regulates FUSCA3 and plays a role in cotyledon development in Arabidopsis thaliana” (Journal of Experimental Botany, 2017)

B1: FLAG-AIP2-6×His (natural protein, Arabidopsis thaliana, UniProt Q8RXD3 1-310, looked up)
chain: MDASSSPSPSEESLKLELDDLQKQLNKKLRFEASVCSIHNLLRDHYSSSSPSLRKQFYIVVSRVATVLKTRYTATGFWVAGLSLFEEAERLVSDASEKKHLKSCVAQAKEQLSEVDNQPTESSQGYLFEGHLTVDREPPQPQWLVQQNLMSAFASIVGGESSNGPTENTIGETANLMQELINGLDMIIPDILDDGGPPRAPPASKEVVEKLPVIIFTEELLKKFGAEAECCICKENLVIGDKMQELPCKHTFHPPCLKPWLDEHNSCPICRHELPTDDQKYENWKEREKEAEEERKGAENAVRGGEYMYV
notes: tagged protein of ~40 kDa; also called AIP2-His; source: cloned into pET28, purified (Ni-NTA-agarose)

How the values were obtained:
[1] = molecular target: T1, BD-FUS3^N90 (FUS3 N-terminal region, first 90 amino acids including the B2 domain, fused to the LexA DNA-binding domain) (Arabidopsis thaliana) (UniProt Q9LW31); assay: two-hybrid; LexA DB fusion of FUS3^N90 (pEG202) and AD fusions of AIP2 variants (pJG4-5) in S. cerevisiae EGY48; growth on -His/-Trp/-Leu/-Ura plates with 2% galactose and 1% raffinose (leucine reporter)
T1 sequence: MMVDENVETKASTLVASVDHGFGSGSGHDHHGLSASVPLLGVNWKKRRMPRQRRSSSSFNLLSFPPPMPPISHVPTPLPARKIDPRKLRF

nYFP–MYB49 = assay: split reporter; BiFC: nYFP and cYFP fusions transiently co-expressed in N. benthamiana leaves by agroinfiltration, confocal imaging after 48 h

binding [1]	binding (nYFP–MYB49)	Molecule
binds	–	AD-AIP2^C/S,E/G (RING-inactive AIP2 variant fused to an activation domain) (from UniProt Q8RXD3)
–	no binding	B1

No constants are given. Whether binding was seen depends on the method and setting. For some assays here: Binding can be weak; no strength is given. Sequences can lack the tags named with a protein. For some assays here: In cells and extracts the contact can be indirect.
